Measured values: patent publication US8841077B2, “Biomarkers for amyotrophic lateral sclerosis and methods using the same” (Massachusetts General Hospital, priority 2006, dated 2014)

Assay: Metabolomic profiling (GC-MS/LC-MS) of CSF samples, ALS subjects vs control subjects (Example 1; Tables 3, 4)
Format: in vivo, human
Conditions: CSF; ALS mean as compared to control mean; T-tests of ALS vs. Controls

Row | Compound | % change in ALS
1 | CC(O)(CC(=O)O)CC(=O)O [3-hydroxy-3-methylglutarate - 35, 3-hydroxy-3-methylglutarate] | 1%
2 | CCCC(=O)O [Butanoic acid - 9, Butanoic acid] | 18%
3 | CC(O)C(=O)O (stereo not drawn) [Lactate (previously: Metabolite - 2563) - 35] | 18%
4 | O=C(O)[C@@H](O)[C@@H](O)[C@H](O)[C@@H](O)C(=O)O [Glucarate - 35, Glucarate] | 7%
5 | NCCc1c[nH]cn1 [Histamine - 35, Histamine] | 19%
6 | Vitamin-B6 [Vitamin-B6 - 9] | −2%
7 | Nc1ccccc1C(=O)CC(N)C(=O)O (stereo not drawn) [alpha-2-diamino-gamma-oxobenzenebutanoic acid] | 76%
8 | N[C@@H](Cc1c[nH]cn1)C(=O)O [Histidine - 35, Histidine] | −10%
9 | CCCCCCCCCCCCCCCCO [1-Hexadecanol-9, 1-Hexadecanol] | 3%
10 | O=C(O)C1CCCCN1 (racemic) [DL-pipecolic acid - 35, DL-pipecolic acid] | 108%
11 | Cc1ncc(CO)c(CN)c1O [Pyridoxamine - 35, Pyridoxamine] | 10%
12 | N[C@@H](CCC(=O)N[C@@H](Cc1ccc(O)cc1)C(=O)O)C(=O)O [Gamma-L-glutamyl-L-tyrosine - 35, Gamma-L-glutamyl-L-tyrosine] | 18%
13 | NCCOP(=O)(O)O [o-phosphoethanolamine - 9, o-phosphoethanolamine] | 11%
14 | OC[C@@]1(O)OC[C@H](O)[C@@H](O)[C@@H]1O [alpha-L-sorbopyranose - 9, alpha-L-sorbopyranose] | 7%
15 | O=P(O)(O)O [Phosphate - 9, Phosphate] | −7%
16 | O=c1[nH]c(=O)c2[nH]cnc2[nH]1 [Xanthine - 35, Xanthine] | −1%
17 | O=C1COC(=O)C1 [Tetronic acid - 9, Tetronic acid] | −3%
18 | N[C@@H](Cc1ccc(O)c(O)c1)C(=O)O [DOPA - 9, DOPA] | 3%
19 | O=C(O)CCCC(=O)O [Pentanedicic acid - 9, Pentanedicic acid] | 1%
20 | CCCCCCCCCC(=O)O [Decanoic acid - 9, Decanoic acid] | −6%
21 | O[C@H]1[C@H](O)[C@@H](O)[C@H](O)[C@@H](O)[C@H]1O [Inositol - 9, Inositol] | 0%
22 | NCCCC(=O)N[C@@H](Cc1c[nH]cn1)C(=O)O [gamma-aminobutyryl-L-histidine - 35, gamma-aminobutyryl-L-histidine] | −7%
23 | OC[C@@H](O)[C@H](O)[C@H](O)[C@@H](O)CO [Dulcitol - 9, Dulcitol] | 4%

Same assay, conditions: CSF; ALS mean as compared to the control mean

Row | Compound | % change in ALS
24 | CC(O)(CC(=O)O)CC(=O)O [3-hydroxy-3-methylglutarate - 35, 3-hydroxy-3-methylglutarate] | 1%
25 | CCCC(=O)O [Butanoic acid - 9, Butanoic acid] | 18%
26 | O=C(O)[C@@H](O)[C@@H](O)[C@H](O)[C@@H](O)C(=O)O [Glucarate - 35, Glucarate] | 7%
27 | NCCc1c[nH]cn1 [Histamine - 35, Histamine] | 19%
28 | Vitamin-B6 [Vitamin-B6 - 9] | −2%
29 | Nc1ccccc1C(=O)CC(N)C(=O)O (stereo not drawn) [alpha-2-diamino-gamma-oxobenzenebutanoic acid] | 76%
30 | N[C@@H](Cc1c[nH]cn1)C(=O)O [Histidine - 35, Histidine] | −10%
31 | O=C(O)C1CCCCN1 (racemic) [DL-pipecolic acid - 35, DL-pipecolic acid] | 108%
32 | Cc1ncc(CO)c(CN)c1O [Pyridoxamine - 35, Pyridoxamine] | 10%
33 | N[C@@H](CCC(=O)N[C@@H](Cc1ccc(O)cc1)C(=O)O)C(=O)O [Gamma-L-glutamyl-L-tyrosine - 35, Gamma-L-glutamyl-L-tyrosine] | 18%
34 | NCCOP(=O)(O)O [o-phosphoethanolamine - 9, o-phosphoethanolamine] | 11%
35 | OC[C@@]1(O)OC[C@H](O)[C@@H](O)[C@@H]1O [alpha-L-sorbopyranose - 9, alpha-L-sorbopyranose] | 7%
36 | O=P(O)(O)O [Phosphate - 9, Phosphate] | −7%
37 | O=c1[nH]c(=O)c2[nH]cnc2[nH]1 [Xanthine - 35, Xanthine] | −1%
38 | O=C1COC(=O)C1 [Tetronic acid - 9, Tetronic acid] | −3%
39 | N[C@@H](Cc1ccc(O)c(O)c1)C(=O)O [DOPA - 9, DOPA] | 3%
40 | CCCCCCCCCC(=O)O [Decanoic acid - 9, Decanoic acid] | −6%
41 | O[C@H]1[C@H](O)[C@@H](O)[C@H](O)[C@@H](O)[C@H]1O [Inositol - 9, Inositol] | 0%
42 | NCCCC(=O)N[C@@H](Cc1c[nH]cn1)C(=O)O [gamma-aminobutyryl-L-histidine - 35, gamma-aminobutyryl-L-histidine] | −7%
43 | OC[C@@H](O)[C@H](O)[C@H](O)[C@@H](O)CO [Dulcitol - 9, Dulcitol] | 4%

Same assay, conditions: CSF; mean in ALS samples as compared to control samples

Row | Compound | Increase (+) or Decrease (−) in ALS
44 | CC(O)(CC(=O)O)CC(=O)O [3-hydroxy-3-methylglutarate - 35, 3-hydroxy-3-methylglutarate] | +
45 | CCCC(=O)O [Butanoic acid - 9, Butanoic acid] | +
46 | O=C(O)[C@@H](O)[C@@H](O)[C@H](O)[C@@H](O)C(=O)O [Glucarate - 35, Glucarate] | +
47 | NCCc1c[nH]cn1 [Histamine - 35, Histamine] | +
48 | Vitamin-B6 [Vitamin-B6 - 9] | −
49 | Nc1ccccc1C(=O)CC(N)C(=O)O (stereo not drawn) [alpha-2-diamino-gamma-oxobenzenebutanoic acid] | +
50 | N[C@@H](Cc1c[nH]cn1)C(=O)O [Histidine - 35, Histidine] | −
51 | O=C(O)C1CCCCN1 (racemic) [DL-pipecolic acid - 35, DL-pipecolic acid] | +
52 | Cc1ncc(CO)c(CN)c1O [Pyridoxamine - 35, Pyridoxamine] | +
53 | N[C@@H](CCC(=O)N[C@@H](Cc1ccc(O)cc1)C(=O)O)C(=O)O [Gamma-L-glutamyl-L-tyrosine - 35, Gamma-L-glutamyl-L-tyrosine] | +
54 | NCCOP(=O)(O)O [o-phosphoethanolamine - 9, o-phosphoethanolamine] | +
55 | OC[C@@]1(O)OC[C@H](O)[C@@H](O)[C@@H]1O [alpha-L-sorbopyranose - 9, alpha-L-sorbopyranose] | +
56 | O=P(O)(O)O [Phosphate - 9, Phosphate] | −
57 | O=c1[nH]c(=O)c2[nH]cnc2[nH]1 [Xanthine - 35, Xanthine] | −
58 | O=C1COC(=O)C1 [Tetronic acid - 9, Tetronic acid] | −
59 | N[C@@H](Cc1ccc(O)c(O)c1)C(=O)O [DOPA - 9, DOPA] | +
60 | CCCCCCCCCC(=O)O [Decanoic acid - 9, Decanoic acid] | −
61 | NCCCC(=O)N[C@@H](Cc1c[nH]cn1)C(=O)O [gamma-aminobutyryl-L-histidine - 35, gamma-aminobutyryl-L-histidine] | −
62 | OC[C@@H](O)[C@H](O)[C@H](O)[C@@H](O)CO [Dulcitol - 9, Dulcitol] | +

Same assay, conditions: CSF; mean in ALS samples vs control samples; T-tests

Row | Compound | Increase (+) or Decrease (−) in ALS
63 | CC(O)(CC(=O)O)CC(=O)O [3-hydroxy-3-methylglutarate - 35, 3-hydroxy-3-methylglutarate] | +
64 | CCCC(=O)O [Butanoic acid - 9, Butanoic acid] | +
65 | CC(O)C(=O)O (stereo not drawn) [Lactate (previously: Metabolite - 2563) - 35] | +
66 | O=C(O)[C@@H](O)[C@@H](O)[C@H](O)[C@@H](O)C(=O)O [Glucarate - 35, Glucarate] | +
67 | NCCc1c[nH]cn1 [Histamine - 35, Histamine] | +
68 | Vitamin-B6 [Vitamin-B6 - 9] | −
69 | Nc1ccccc1C(=O)CC(N)C(=O)O (stereo not drawn) [alpha-2-diamino-gamma-oxobenzenebutanoic acid] | +
70 | N[C@@H](Cc1c[nH]cn1)C(=O)O [Histidine - 35, Histidine] | −
71 | CCCCCCCCCCCCCCCCO [1-Hexadecanol-9, 1-Hexadecanol] | +
72 | O=C(O)C1CCCCN1 (racemic) [DL-pipecolic acid - 35, DL-pipecolic acid] | +
73 | Cc1ncc(CO)c(CN)c1O [Pyridoxamine - 35, Pyridoxamine] | +
74 | N[C@@H](CCC(=O)N[C@@H](Cc1ccc(O)cc1)C(=O)O)C(=O)O [Gamma-L-glutamyl-L-tyrosine - 35, Gamma-L-glutamyl-L-tyrosine] | +
75 | NCCOP(=O)(O)O [o-phosphoethanolamine - 9, o-phosphoethanolamine] | +
76 | OC[C@@]1(O)OC[C@H](O)[C@@H](O)[C@@H]1O [alpha-L-sorbopyranose - 9, alpha-L-sorbopyranose] | +
77 | O=P(O)(O)O [Phosphate - 9, Phosphate] | −
78 | O=c1[nH]c(=O)c2[nH]cnc2[nH]1 [Xanthine - 35, Xanthine] | −
79 | O=C1COC(=O)C1 [Tetronic acid - 9, Tetronic acid] | −
80 | N[C@@H](Cc1ccc(O)c(O)c1)C(=O)O [DOPA - 9, DOPA] | +
81 | O=C(O)CCCC(=O)O [Pentanedicic acid - 9, Pentanedicic acid] | +
82 | CCCCCCCCCC(=O)O [Decanoic acid - 9, Decanoic acid] | −
83 | NCCCC(=O)N[C@@H](Cc1c[nH]cn1)C(=O)O [gamma-aminobutyryl-L-histidine - 35, gamma-aminobutyryl-L-histidine] | −
84 | OC[C@@H](O)[C@H](O)[C@H](O)[C@@H](O)CO [Dulcitol - 9, Dulcitol] | +
